± gives the standard deviation of the averaged measurements. This is one part of the list. Repeats in this data set agree poorly, so a single value says little.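 Triple-negative MDA-MB-231 breast cancer cells and their brain-metastatic MDA-MB-231BRM derivative each stably expressed empty vector, full-length GLI1 or truncated tGLI1. CellTiter-Blue measured viability at 48 h relative to 1% DMSO vehicle. Compounds reducing viability 20% more in tGLI1 cells than in vector and GLI1 cells counted as tGLI1-selective.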
Legend:
Experiment in all cases: cell viability relative to vehicle (DMSO) control (fraction); higher = more viable cells (less growth inhibition)
Settings in all cases: treatment time 48 h
MDA-MB-231 GLI1 = tested on: MDA-MB-231 GLI1
MDA-MB-231 Vector = tested on: MDA-MB-231 Vector
MDA-MB-231 tGLI1 = tested on: MDA-MB-231 tGLI1
MDA-MB-231BRM GLI1 = tested on: MDA-MB-231BRM GLI1
MDA-MB-231BRM Vector = tested on: MDA-MB-231BRM Vector
MDA-MB-231BRM tGLI1 = tested on: MDA-MB-231BRM tGLI1

Row | Compound | cell viability (MDA-MB-231 GLI1; 0.05 µM) | cell viability (MDA-MB-231 GLI1; 0.5 µM) | cell viability (MDA-MB-231 GLI1; 5 µM) | cell viability (MDA-MB-231 Vector; 0.05 µM) | cell viability (MDA-MB-231 Vector; 0.5 µM) | cell viability (MDA-MB-231 Vector; 5 µM) | cell viability (MDA-MB-231 tGLI1; 0.05 µM) | cell viability (MDA-MB-231 tGLI1; 0.5 µM) | cell viability (MDA-MB-231 tGLI1; 5 µM) | cell viability (MDA-MB-231BRM GLI1; 0.05 µM) | cell viability (MDA-MB-231BRM GLI1; 0.5 µM) | cell viability (MDA-MB-231BRM GLI1; 5 µM) | cell viability (MDA-MB-231BRM Vector; 0.05 µM) | cell viability (MDA-MB-231BRM Vector; 0.5 µM) | cell viability (MDA-MB-231BRM Vector; 5 µM) | cell viability (MDA-MB-231BRM tGLI1; 0.05 µM) | cell viability (MDA-MB-231BRM tGLI1; 0.5 µM) | cell viability (MDA-MB-231BRM tGLI1; 5 µM)
1 | Nc1nc(Cl)nc2c1ncn2[C@H]1C[C@H](O)[C@@H](CO)O1 [Cladribine] | 0.725 | 0.528 | 0.334 | 0.868 | 0.542 | 0.273 | 0.851 | 0.599 | 0.215 | 0.991 | 0.916 | 0.706 | 0.988 | 0.881 | 0.752 | 0.983 | 0.967 | 0.816
2 | Nc1nc(Nc2ccc(S(N)(=O)=O)cc2)nn1C(=O)c1c(F)cccc1F | 1.23 | 1.11 | 0.141 | 1.82 | 1.04 | 0.17 | 1.06 | 0.395 | 0.136 | 1.16 | 1.17 | 0.95 | 1 | 1.17 | 0.563 | 1.11 | 0.634 | 0.484
3 | CS(=O)(=O)CCNCc1ccc(-c2ccc3ncnc(Nc4ccc(OCc5cccc(F)c5)c(Cl)c4)c3c2)o1 | 1.05 | 1.59 | 0.87 | 1.27 | 1.11 | 0.801 | 1.01 | 1.31 | 0.803 | 0.896 | 0.829 | 0.711 | 0.901 | 0.869 | 0.732 | 0.907 | 0.877 | 0.625
4 | CN1CCCN(C(=O)c2cccc(-c3ccc(/C=C4/C(=O)Nc5ccc(Cl)cc54)o3)c2)CC1 | 1.36 | 1 | -0.193 | 1.14 | 0.947 | -0.178 | 1.29 | 0.909 | -0.207 | 0.972 | 0.898 | 0.5 | 1.03 | 0.923 | 0.0767 | 0.989 | 0.958 | -0.00346
5 | NC(=O)Cc1cccc(C(=O)c2ccccc2)c1N [Nepafenac] | 1.16 | 1.04 | 1.02 | 1.28 | 1.09 | 0.94 | 1.08 | 0.971 | 0.971 | 0.977 | 1.05 | 0.972 | 1 | 1.04 | 0.897 | 0.953 | 0.912 | 0.948
6 | Cn1cc(-c2ccc3nnc(Sc4ccc5ncccc5c4)n3n2)cn1 | 1.36 | 1.94 | 1.45 | 1.55 | 1.23 | 1.06 | 1.32 | 1.4 | 0.82 | 0.949 | 0.971 | 0.919 | 0.965 | 0.931 | 0.931 | 0.947 | 0.963 | 0.918
7 | Nc1nc(N)c(N=O)c(OCC2CCCCC2)n1 | 1.39 | 1.58 | 0.72 | 1.5 | 1.39 | 1.04 | 1.43 | 1.39 | 1.13 | 1.05 | 1.01 | 0.957 | 1.15 | 1.04 | 1.02 | 1.01 | 1.01 | 0.959
8 | CO[C@H]1C[C@@H]2CC[C@@H](C)[C@@](O)(O2)C(=O)C(=O)N2CCCC[C@H]2C(=O)O[C@H]([C@H](C)C[C@@H]2CC[C@@H](OCCO)[C@H](OC)C2)CC(=O)[C@H](C)/C=C(\C)[C@@H](O)[C@@H](OC)C(=O)[C@H](C)C[C@H](C)/C=C/C=C/C=C/1C [Everolimus (RAD001)] | 0.896 ± 0.12 | 0.804 ± 0.35 | 0.716 ± 0.13 | 0.951 ± 0.038 | 0.7 ± 0.21 | 0.561 ± 0.13 | 0.832 ± 0.073 | 0.761 ± 0.33 | 0.573 ± 0.073 | 0.892 ± 0.013 | 0.885 ± 0.041 | 0.764 ± 0.2 | 0.871 ± 0.018 | 0.859 ± 0.035 | 0.825 ± 0.17 | 0.907 ± 0.034 | 0.844 ± 0.056 | 0.789 ± 0.093
9 | CC(C)(C)NC(=O)[C@H]1CC[C@H]2[C@@H]3CC[C@H]4NC(=O)C=C[C@]4(C)[C@H]3CC[C@]12C [Finasteride] | 1.22 | 1.01 | 1.16 | 1.49 | 1.36 | 1.11 | 0.841 | 1.1 | 1.12 | 1.03 | 1.01 | 0.971 | 1.05 | 0.992 | 0.991 | 1.04 | 1.07 | 1.04
10 | O=C1NC(=O)/C(=C/c2cccc(C(F)(F)F)c2)S1 | 2.22 | 3.05 | 2.17 | 1.38 | 1.13 | 1.19 | 1.35 | 1.39 | 1.29 | 0.812 | 0.769 | 0.704 | 0.849 | 0.798 | 0.785 | 1.12 | 1 | 1.03
11 | C[C@@H]1COC(Nc2ccc3ncnc(Nc4ccc(OCc5nccs5)c(Cl)c4)c3c2)=N1 [Varlitinib] | 1.2 | 1.12 | 0.845 | 1.34 | 1.28 | 1.02 | 1.47 | 1.13 | 0.869 | 0.976 | 0.943 | 0.804 | 1.02 | 0.963 | 0.843 | 1.09 | 1.04 | 0.874
12 | N#Cc1c(Oc2ccc(F)c(NC(=O)Cc3cccc(C(F)(F)F)c3)c2)ccc2nc(NC(=O)C3CC3)sc12 | 1.02 | 0.777 | 0.42 | 0.828 | 0.6 | 0.486 | 1.09 | 0.683 | 0.438 | 1.11 | 1.03 | 0.921 | 1.19 | 1.14 | 0.895 | 1.03 | 1.05 | 0.897
13 | CC(C)n1nc(-c2cc3cc(O)ccc3[nH]2)c2c(N)ncnc21 | 1.13 | 0.717 | 0.208 | 0.746 | 0.667 | 0.174 | 0.68 | 0.481 | 0.356 | 1.05 | 0.988 | 0.727 | 0.599 | 0.797 | 0.815 | 0.597 | 0.928 | 0.647

Entries of single compounds, looked up by structure. Values in the order: cell viability (MDA-MB-231 GLI1; 0.05 µM)	cell viability (MDA-MB-231 GLI1; 0.5 µM)	cell viability (MDA-MB-231 GLI1; 5 µM)	cell viability (MDA-MB-231 Vector; 0.05 µM)	cell viability (MDA-MB-231 Vector; 0.5 µM)	cell viability (MDA-MB-231 Vector; 5 µM)	cell viability (MDA-MB-231 tGLI1; 0.05 µM)	cell viability (MDA-MB-231 tGLI1; 0.5 µM)	cell viability (MDA-MB-231 tGLI1; 5 µM)	cell viability (MDA-MB-231BRM GLI1; 0.05 µM)	cell viability (MDA-MB-231BRM GLI1; 0.5 µM)	cell viability (MDA-MB-231BRM GLI1; 5 µM)	cell viability (MDA-MB-231BRM Vector; 0.05 µM)	cell viability (MDA-MB-231BRM Vector; 0.5 µM)	cell viability (MDA-MB-231BRM Vector; 5 µM)	cell viability (MDA-MB-231BRM tGLI1; 0.05 µM)	cell viability (MDA-MB-231BRM tGLI1; 0.5 µM)	cell viability (MDA-MB-231BRM tGLI1; 5 µM)
NC(=O)Cc1cccc(C(=O)c2ccccc2)c1N [Nepafenac] as listed: 1.16	1.04	1.02	1.28	1.09	0.94	1.08	0.971	0.971	0.977	1.05	0.972	1	1.04	0.897	0.953	0.912	0.948
CN1CCCN(C(=O)c2cccc(-c3ccc(/C=C4/C(=O)Nc5ccc(Cl)cc54)o3)c2)CC1 as listed: 1.36	1	-0.193	1.14	0.947	-0.178	1.29	0.909	-0.207	0.972	0.898	0.5	1.03	0.923	0.0767	0.989	0.958	-0.00346

Source: the supplement of paper PMC9454738
